Reference: patent US20250288599A1, “PHARMACEUTICAL COMPOSITIONS AND METHODS FOR TREATING OSTEOARTHRITIS” (INSIGNIA PHARMACEUTICALS, LLC, priority 2024, published 2025)
For at least one compound, name, drawing or mass did not settle the structure.

Chains of the proteins cited; added tags and fusions are not shown. Residues count along the entry.
UniProt P00630, 34-167 limits assumed: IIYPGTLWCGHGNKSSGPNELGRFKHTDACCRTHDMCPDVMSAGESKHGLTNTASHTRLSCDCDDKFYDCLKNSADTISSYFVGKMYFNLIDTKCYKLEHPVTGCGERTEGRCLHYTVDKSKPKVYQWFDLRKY

Target: PLA2 isolated from bee venom (Apis mellifera, UniProt P00630)
Format: biochemical

C[C@@H]1C[C@H]2[C@@H]3CCC4=CC(=O)C=C[C@]4(C)[C@@]3(F)[C@@H](O)C[C@]2(C)[C@@]1(O)C(=O)CO [Dex, dexamethasone, reference compound]
PLA2 activity inhibition: no significant signs of PLA2 activity inhibition
